Laboratory results as given in PMC7819943, “Rice protein-binding microarrays: a tool to detect cis-acting elements near promoter regions in rice”.
Some of the results follow.

biological target: T1, OsSMF1 (Oryza sativa, UniProt Q6ZLB0 1-436); assay: protein-binding microarray (RPBM); PBS, 2% BSA, 51.3 ng/ul salmon testes DNA, 50 uM zinc acetate, 200 nM TF, 25 C, 1 h; high values mean tight binding; conditions: protein: recombinant; tags: N-terminal polyhistidine and DsRed monomer fusion (pET32a); chain copies: 2; label: CyDye5-dUTP incorporated in the synthesized complementary strand; 3' TTTTT single-stranded linker to array surface; dsDNA, one strand shown
T1 sequence: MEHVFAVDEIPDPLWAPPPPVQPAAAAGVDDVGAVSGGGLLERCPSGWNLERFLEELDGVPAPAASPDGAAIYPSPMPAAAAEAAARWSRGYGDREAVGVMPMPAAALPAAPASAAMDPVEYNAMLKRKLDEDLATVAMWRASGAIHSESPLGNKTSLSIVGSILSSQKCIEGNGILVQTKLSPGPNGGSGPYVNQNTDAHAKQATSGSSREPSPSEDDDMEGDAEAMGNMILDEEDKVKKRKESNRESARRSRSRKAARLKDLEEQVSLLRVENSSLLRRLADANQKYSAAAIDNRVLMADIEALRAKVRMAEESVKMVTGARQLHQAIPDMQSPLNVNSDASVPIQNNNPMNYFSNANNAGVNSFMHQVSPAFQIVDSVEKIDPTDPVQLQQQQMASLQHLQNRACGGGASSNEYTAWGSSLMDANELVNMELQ
Outline: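 Ni–NTA purification followed expression in E. coli BL21-CodonPlus of transcription factors fused N-terminally to a polyhistidine tag and DsRed. At 200 nM in PBS with 2% BSA, salmon testes DNA and 50 µM zinc acetate, the protein was incubated for 1 h at 25 °C with a custom Agilent array that had been primer-extended with Cy5-dUTP and blocked with 2% BSA. After washing, the array was read on an Axon 4000B scanner. The binding signal is per-feature fluorescence intensity in arbitrary units.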

Row | Sequence | binding signal
1 | CTGCGCCTGCGTCTGCGCCACCGTCACCTTCGCGGCCGCGCGGAGTCACCTAGTGCAG | 3450 fluorescence intensity (a.u.)
2 | ATATGACAATCAGACCTTACATCACAGTAATGTACCAATCCGGAGTCACCTAGTGCAG | 3540 fluorescence intensity (a.u.)
3 | TCCGTTATATGTTAATCTATCCGATACTTGTAATACTTTTCGGAGTCACCTAGTGCAG | 16200 fluorescence intensity (a.u.)
4 | AATTGTTTACTGATCTTTGCGTTAATGATGATTGTGCCCTCGGAGTCACCTAGTGCAG | 3160 fluorescence intensity (a.u.)
5 | CGAAACCAGTCACGGGCCACTCACAACCACCACCCTAAACCGGAGTCACCTAGTGCAG | 3230 fluorescence intensity (a.u.)
6 | GTACCAACAGGATCCGTGGCGCAATGGTAGCGCGTCTGACCGGAGTCACCTAGTGCAG | 3210 fluorescence intensity (a.u.)
7 | CCTATCAGTACTGTCACATCTGGTGTGTGTGTGTCCAACTCGGAGTCACCTAGTGCAG | 4280 fluorescence intensity (a.u.)
8 | GTGTGAGGGAGGGAGGGAGTCGGACTCACAAGTCCCGGCCCGGAGTCACCTAGTGCAG | 3600 fluorescence intensity (a.u.)
9 | GCGGAGGCAAGAGGACGTGCAACACGTGGGATAGCGCCGACGGAGTCACCTAGTGCAG | 4050 fluorescence intensity (a.u.)
10 | GCGGCGTAATTGTAGTCAGCACTACCGATCAGCCCCTATTCGGAGTCACCTAGTGCAG | 3760 fluorescence intensity (a.u.)
11 | GATGTATATCCTATTAGGCGTGTTTGCTAGAGCCACTTCCCGGAGTCACCTAGTGCAG | 3910 fluorescence intensity (a.u.)
12 | TGCTACGGAGCTACGGATCTATGGCGACAGTAAGCGCTGGCGGAGTCACCTAGTGCAG | 3160 fluorescence intensity (a.u.)
13 | CGCTGGTTAGAGGTATTACGCTAGCACGTGTAGTCTAGTCCGGAGTCACCTAGTGCAG | 6000 fluorescence intensity (a.u.)
14 | ACTTTCGTCATGCTGCAGATGTCACCACCTATAATACACTCGGAGTCACCTAGTGCAG | 6750 fluorescence intensity (a.u.)
15 | CATGCCAGGTCAGTCGGCATCCATGAAGACTGCACTGCACCGGAGTCACCTAGTGCAG | 42600 fluorescence intensity (a.u.)
16 | ATCTATCTATGTACCTACTGCAAAAGGCTGCTGATTCGTGCGGAGTCACCTAGTGCAG | 3870 fluorescence intensity (a.u.)
17 | CTCTGCATTGCACCTCTCGACCCCTAGGATGTACACGTGGCGGAGTCACCTAGTGCAG | 15200 fluorescence intensity (a.u.)
18 | GGCGTGGGGAGGCGGAGGGAGGGAGGGGAGCGGCTGCGCACGGAGTCACCTAGTGCAG | 5970 fluorescence intensity (a.u.)
19 | ATGAAAACGTATCAATGTACGTCAGTCACTGGACATTAATCGGAGTCACCTAGTGCAG | 3310 fluorescence intensity (a.u.)
20 | ACCTCTACCCTAACACAGCACACCACACCGACACGTGGGCCGGAGTCACCTAGTGCAG | 6970 fluorescence intensity (a.u.)
21 | CAACCTTTATCTGAAGTGGCAGGCACGTGGATTAGCAATACGGAGTCACCTAGTGCAG | 5790 fluorescence intensity (a.u.)

Random excerpt: 2 records from the list.
Row | Sequence | binding signal
11 | GATGTATATCCTATTAGGCGTGTTTGCTAGAGCCACTTCCCGGAGTCACCTAGTGCAG | 3910 fluorescence intensity (a.u.)
16 | ATCTATCTATGTACCTACTGCAAAAGGCTGCTGATTCGTGCGGAGTCACCTAGTGCAG | 3870 fluorescence intensity (a.u.)

(further entries)

Row | Sequence | binding signal
22 | AGTAGAACAGAATAACCTGCCACGATGGCTTTGCCCGTAACGGAGTCACCTAGTGCAG | 4880 fluorescence intensity (a.u.)
23 | TGTGGGAGGGATGGGAGACGCTTGAGTCAACAGCGACCGGCGGAGTCACCTAGTGCAG | 3690 fluorescence intensity (a.u.)
24 | TTATGTCAAAACAATTATTAAAATACACGTGCTTCTTTTCCGGAGTCACCTAGTGCAG | 3640 fluorescence intensity (a.u.)
25 | CACCGGCCCCTCCACTTCTGGCCAGTGACGAGGGCGCGGACGGAGTCACCTAGTGCAG | 3320 fluorescence intensity (a.u.)
26 | CGCGCGCGACACTGCGCTCCCGTGCACGCCGCACGGAGGACGGAGTCACCTAGTGCAG | 3260 fluorescence intensity (a.u.)
27 | CTGCAGCTGACACATCTTCCTGCAAGGGCGCGGCGCAATCCGGAGTCACCTAGTGCAG | 3700 fluorescence intensity (a.u.)
28 | TTCTTCTAGAGGAGGAGGAGGCGGCGGGGCGGCGGGCGAGCGGAGTCACCTAGTGCAG | 4420 fluorescence intensity (a.u.)
29 | CTGGCGTGCGAGAAGGTGATGTGATGTGCGTGGCTGACGGCGGAGTCACCTAGTGCAG | 4110 fluorescence intensity (a.u.)
30 | GGAAGGGATTGAGACCAGGGGTTTATGTGGGCCCCACTATCGGAGTCACCTAGTGCAG | 3170 fluorescence intensity (a.u.)
31 | ACCCATAGAGATCGACACTATAGGTACCGGAATAACTAAACGGAGTCACCTAGTGCAG | 63800 fluorescence intensity (a.u.)
32 | CACCATGATCATCATCATGCACATCAACTATGTGCAGGCCCGGAGTCACCTAGTGCAG | 3370 fluorescence intensity (a.u.)
33 | TACCGAGGACTTGGAAACGACGCTGACGAGTTTCACCAGGCGGAGTCACCTAGTGCAG | 3920 fluorescence intensity (a.u.)
34 | CGAAATCATGTGATACGTCAAGTGCACGTATACCAACTCACGGAGTCACCTAGTGCAG | 28600 fluorescence intensity (a.u.)
35 | ATTTAGCGGCTATCTCTGACTAAGTGCAGCTATTAGTGGTCGGAGTCACCTAGTGCAG | 4790 fluorescence intensity (a.u.)
36 | GAAGCTGCACAATAATTAGTTAAACCTCTACTCACTGCATCGGAGTCACCTAGTGCAG | 30400 fluorescence intensity (a.u.)
37 | CCAGTAGAGAGATCACACGTACACAACCCACAGTCTCGCCCGGAGTCACCTAGTGCAG | 4740 fluorescence intensity (a.u.)
38 | GCCGCCGCAGCCGGGTCGCCGCCGGATGACGCACCAATCGCGGAGTCACCTAGTGCAG | 3900 fluorescence intensity (a.u.)
39 | GCATTGAATATAGAGCAATTTGATGTGGCAAAACAATTGACGGAGTCACCTAGTGCAG | 3910 fluorescence intensity (a.u.)
40 | GACTCTTCATCTGACCTGTAGTGTAGGCCGTGTCCTGTCCCGGAGTCACCTAGTGCAG | 3290 fluorescence intensity (a.u.)
41 | TTACATATGGACCGGGCGCGTAAACCTCATCGTCTTTCTCCGGAGTCACCTAGTGCAG | 3150 fluorescence intensity (a.u.)
42 | CCACCACCACGTAATTAACGCTGCCTCGCTGTTAATGTTCCGGAGTCACCTAGTGCAG | 4460 fluorescence intensity (a.u.)
